The amount applied is not stated for every result.
Tested on: rat oligodendrocyte progenitor cells
Experiment: Promotive activity of rat oligodendrocyte progenitor cell differentiation-2 (immunostaining of MBP)
Assay type: cell-based
Settings: t-test vs DMSO group
Protocol: The promotive activity of oligodendrocyte progenitor cell (OPC) differentiation of the vitamin D derivatives was evaluated by immunostaining of MBP.
Subsequently, oligodendrocyte progenitor cell separation medium was added to the flask, and the mixture was similarly shaken for about 22 hours (37° C., 200 rpm), and the supernatant was collected to prepare oligodendrocyte progenitor cells.

C[C@H](CN1CCOC[C@@H]1C1CC1)[C@H]1CC[C@H]2/C(=C/C=C3C[C@@H](O)C[C@H](O)C3)CCC[C@]12C [Compound G008, (1R,3R)-5-(2-((1R,3aS,7aR,E)-1-((S)-1-((S)-3-cyclopropylmorpholino)propan-2-yl)-7a-methyloctahydro-4H-inden-4-ylidene)ethylidene)cyclohexane-1,3-diol]
Significant difference (Test 5): **** (<0.0001)

C[C@H](CN1CCOC[C@@H]1C)[C@H]1CC[C@H]2/C(=C/C=C3C[C@@H](O)C[C@H](O)C3)CCC[C@]12C [Compound G004, (1R,3R)-5-(2-((1R,3aS,7aR,E)-7a-methyl-1-((S)-1-((S)-3-methylmorpholino)propan-2-yl)octahydro-4H-inden-4-ylidene)ethylidene)cyclohexane-1,3-diol]
Significant difference (Test 3): **** (<0.0001)

C=C1/C(=C\C=C2/CCC[C@]3(C)[C@@H]([C@H](C)CN4CCOC[C@@H]4C)CC[C@@H]23)C[C@@H](O)C[C@@H]1O [Compound F004, (1R,3S,Z)-5-(2-((1R,3aS,7aR,E)-7a-methyl-1-((S)-1-((S)-3-methylmorpholino)propan-2-yl)octahydro-4H-inden-4-ylidene)ethylidene)-4-methylenecyclohexane-1,3-diol]
Significant difference (Test 3): **** (<0.0001)

C=C1/C(=C\C=C2/CCC[C@]3(C)[C@@H]([C@H](C)CN4CCCC[C@@H]4C)CC[C@@H]23)C[C@@H](O)C[C@H]1O [Compound I001, (1R,3R,Z)-5-(2-((1R,3aS,7aR,E)-7a-methyl-1-((S)-1-((S)-2-methylpiperidin-1-yl)propan-2-yl)octahydro-4H-inden-4-ylidene)ethylidene)-4-methylenecyclohexane-1,3-diol]
Significant difference (Test 9): *** (<0.001)

C=C1/C(=C\C=C2/CCC[C@]3(C)[C@@H]([C@H](C)CN4CC[C@H](C(F)F)C4)CC[C@@H]23)C[C@@H](O)C[C@@H]1O [Compound B020, (1R,3S,Z)-5-(2-((1R,3aS,7aR,E)-1-((S)-1-((S)-3-(difluoromethyl)pyrrolidin-1-yl)propan-2-yl)-7a-methyloctahydro-4H-inden-4-ylidene)ethylidene)-4-methylenecyclohexane-1,3-diol]
Significant difference (Test 1): **** (<0.0001)

C[C@H](CCN1CCCC[C@@H]1C)[C@H]1CC[C@H]2/C(=C/C=C3C[C@@H](O)C[C@H](O)C3)CCC[C@]12C [Compound G017, (1R,3R)-5-(2-((1R,3aS,7aR,E)-7a-methyl-1-((R)-4-((S)-2-methylpiperidin-1-yl)butan-2-yl)octahydro-4H-inden-4-ylidene)ethylidene)cyclohexane-1,3-diol]
Significant difference (Test 6): **** (<0.0001)

C=C1[C@H](O)CC(=C/C=C2\CCC[C@]3(C)[C@@H]([C@H](C)CN4CCCCC4(C)C)CC[C@@H]23)C[C@H]1O [Compound H003, (1R,3R)-5-(2-((1R,3aS,7aR,E)-1-((S)-1-(2,2-dimethylpiperidin-1-yl)propan-2-yl)-7a-methyloctahydro-4H-inden-4-ylidene)ethylidene)-2-methylenecyclohexane-1,3-diol]
Significant difference (Test 9): *** (<0.001)

C[C@H](CN1CCCCC1(C)C)[C@H]1CC[C@H]2/C(=C/C=C3C[C@@H](O)C[C@H](O)C3)CCC[C@]12C [Compound G003, (1R,3R)-5-(2-((1R,3aS,7aR,E)-1-((S)-1-(2,2-dimethylpiperidin-1-yl)propan-2-yl)-7a-methyloctahydro-4H-inden-4-ylidene)ethylidene)cyclohexane-1,3-diol]
Significant difference (Test 3): **** (<0.0001)

C[C@H](CN1CC[C@@H](C(C)(F)F)C1)[C@H]1CC[C@H]2/C(=C/C=C3C[C@@H](O)C[C@H](O)C3)CCC[C@]12C [Compound B034, (1R,3R)-5-(2-((1R,3aS,7aR,E)-1-((S)-1-((R)-3-(1,1-difluoroethyl)pyrrolidin-1-yl)propan-2-yl)-7a-methyloctahydro-4H-inden-4-ylidene)ethylidene)cyclohexane-1,3-diol]
Significant difference (Test 1): **** (<0.0001)

C=C1/C(=C\C=C2/CCC[C@]3(C)[C@@H]([C@H](C)CN4CCCC[C@@H]4C)CC[C@@H]23)C[C@@H](O)C[C@@H]1O [Compound F001, (1R,3S,Z)-5-(2-((1R,3aS,7aR,E)-7a-methyl-1-((S)-1-((S)-2-methylpiperidin-1-yl)propan-2-yl)octahydro-4H-inden-4-ylidene)ethylidene)-4-methylenecyclohexane-1,3-diol]
Significant difference (Test 7): ** (<0.01)

C[C@H](CN1CCN(C)C[C@@H]1C)[C@H]1CC[C@H]2/C(=C/C=C3C[C@@H](O)C[C@H](O)C3)CCC[C@]12C [Compound G011, (1R,3R)-5-(2-((1R,3aS,7aR,E)-1-((S)-1-((S)-2,4-dimethylpiperazin-1-yl)propan-2-yl)-7a-methyloctahydro-4H-inden-4-ylidene)ethylidene)cyclohexane-1,3-diol]
Significant difference (Test 5): ** (<0.01)

C[C@H](CN1CCOCC1(C)C)[C@H]1CC[C@H]2/C(=C/C=C3C[C@@H](O)C[C@H](O)C3)CCC[C@]12C [Compound G006, (1R,3R)-5-(2-((1R,3aS,7aR,E)-1-((S)-1-(3,3-dimethylmorpholino)propan-2-yl)-7a-methyloctahydro-4H-inden-4-ylidene)ethylidene)cyclohexane-1,3-diol]
Significant difference (Test 4): **** (<0.0001)

C=C1/C(=C\C=C2/CCC[C@]3(C)[C@@H]([C@H](C)CN4CCCC[C@H]4C)CC[C@@H]23)C[C@@H](O)C[C@H]1O [Compound I002, (1R,3R,Z)-5-(2-((1R,3aS,7aR,E)-7a-methyl-1-((S)-1-((R)-2-methylpiperidin-1-yl)propan-2-yl)octahydro-4H-inden-4-ylidene)ethylidene)-4-methylenecyclohexane-1,3-diol]
Significant difference (Test 9): **** (<0.0001)

C=C1/C(=C\C=C2/CCC[C@]3(C)[C@@H]([C@H](C)CN4CCC[C@H]4C(C)(C)OC)CC[C@@H]23)C[C@@H](O)C[C@@H]1O [Compound F016, (1R,3S,Z)-5-(2-((1R,3aS,7aR,E)-1-((S)-1-((S)-2-(2-methoxypropan-2-yl)pyrrolidin-1-yl)propan-2-yl)-7a-methyloctahydro-4H-inden-4-ylidene)ethylidene)-4-methylenecyclohexane-1,3-diol]
Significant difference (Test 8): *** (<0.001)

C=C1[C@H](O)CC(=C/C=C2\CCC[C@]3(C)[C@@H]([C@H](C)CN4CCC[C@H]4C(C)(C)OC)CC[C@@H]23)C[C@H]1O [Compound H016, (1R,3R)-5-(2-((1R,3aS,7aR,E)-1-((S)-1-((S)-2-(2-methoxypropan-2-yl)pyrrolidin-1-yl)propan-2-yl)-7a-methyloctahydro-4H-inden-4-ylidene)ethylidene)-2-methylenecyclohexane-1,3-diol]
Significant difference (Test 8): ** (<0.01)

C=C1/C(=C\C=C2/CCC[C@]3(C)[C@@H]([C@H](C)CN4CCOC[C@@H]4C)CC[C@@H]23)C[C@@H](O)C[C@H]1O [Compound I004, (1R,3R,Z)-5-(2-((1R,3aS,7aR,E)-7a-methyl-1-((S)-1-((S)-3-methylmorpholino)propan-2-yl)octahydro-4H-inden-4-ylidene)ethylidene)-4-methylenecyclohexane-1,3-diol]
Significant difference (Test 4): **** (<0.0001)

C=C1/C(=C\C=C2/CCC[C@]3(C)[C@@H]([C@H](C)CN4CCCCC4(C)C)CC[C@@H]23)C[C@@H](O)C[C@H]1O [Compound I003, (1R,3R,Z)-5-(2-((1R,3aS,7aR,E)-1-((S)-1-(2,2-dimethylpiperidin-1-yl)propan-2-yl)-7a-methyloctahydro-4H-inden-4-ylidene)ethylidene)-4-methylenecyclohexane-1,3-diol]
Significant difference (Test 9): **** (<0.0001)

C=C1[C@H](O)CC(=C/C=C2\CCC[C@]3(C)[C@@H]([C@H](C)CN4CCC(C(C)(F)F)CC4)CC[C@@H]23)C[C@H]1O [Compound C055, (1R,3R)-5-(2-((1R,3aS,7aR,E)-1-((S)-1-(4-(1,1-difluoroethyl)piperidin-1-yl)propan-2-yl)-7a-methyloctahydro-4H-inden-4-ylidene)ethylidene)-2-methylenecyclohexane-1,3-diol]
Significant difference (Test 2): **** (<0.0001)

C=C1/C(=C\C=C2/CCC[C@]3(C)[C@@H]([C@H](C)CN4CCOC[C@@H]4C4CC4)CC[C@@H]23)C[C@@H](O)C[C@@H]1O [Compound F008, (1R,3 S,Z)-5-(2-((1R,3aS,7aR,E)-1-((S)-1-((S)-3-cyclopropylmorpholino)propan-2-yl)-7a-methyloctahydro-4H-inden-4-ylidene)ethylidene)-4-methylenecyclohexane-1,3-diol]
Significant difference (Test 5): **** (<0.0001)

COC(C)(C)[C@@H]1CCCN1C[C@@H](C)[C@H]1CC[C@H]2/C(=C/C=C3C[C@@H](O)C[C@H](O)C3)CCC[C@]12C [Compound G016, (1R,3R)-5-(2-((1R,3aS,7aR,E)-1-((S)-1-((S)-2-(2-methoxypropan-2-yl)pyrrolidin-1-yl)propan-2-yl)-7a-methyloctahydro-4H-inden-4-ylidene)ethylidene)cyclohexane-1,3-diol]
Significant difference (Test 7): *** (<0.001)

C=C1/C(=C\C=C2/CCC[C@]3(C)[C@@H]([C@H](C)CN4CCOCC4(C)C)CC[C@@H]23)C[C@@H](O)C[C@@H]1O [Compound F006, (1R,3S,Z)-5-(2-((1R,3aS,7aR,E)-1-((S)-1-(3,3-dimethylmorpholino)propan-2-yl)-7a-methyloctahydro-4H-inden-4-ylidene)ethylidene)-4-methylenecyclohexane-1,3-diol]
Significant difference (Test 4): **** (<0.0001)

C=C1[C@H](O)CC(=C/C=C2\CCC[C@]3(C)[C@@H]([C@H](C)CN4CCCC(O)(C(F)F)C4)CC[C@@H]23)C[C@H]1O (single isomer, unassigned) [Compound C036b]
Significant difference (Test 2): *** (<0.001)

Reference: US20250195488A1, “MEDICINE CONTAINING VITAMIN D DERIVATIVE OR PHARMACEUTICALLY ACCEPTABLE SALT OR SOLVATE THEREOF, USED IN COMBINATION WITH IMMUNOMODULATORY SUBSTANCE” (TEEJIN PHARMA LIMITED, priority 2022, published 2025)
